Results as given in publication doi:10.1101/2025.09.04.674188.

Protein sequences, listed by entry. Tags and fused reporters are not part of them.
UniProt Q9Y5X4: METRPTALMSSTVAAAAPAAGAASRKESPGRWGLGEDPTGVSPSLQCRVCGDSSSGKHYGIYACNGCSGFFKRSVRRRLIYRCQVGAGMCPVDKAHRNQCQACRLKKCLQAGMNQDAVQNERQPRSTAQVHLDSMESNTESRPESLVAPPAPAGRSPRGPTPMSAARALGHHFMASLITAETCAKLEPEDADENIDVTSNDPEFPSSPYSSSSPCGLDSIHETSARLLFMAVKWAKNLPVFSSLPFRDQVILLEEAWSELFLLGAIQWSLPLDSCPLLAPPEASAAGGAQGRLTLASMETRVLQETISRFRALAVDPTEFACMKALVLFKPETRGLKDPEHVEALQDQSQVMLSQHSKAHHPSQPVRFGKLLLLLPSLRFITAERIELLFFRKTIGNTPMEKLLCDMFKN

B1: JUN, P05412 1-331 (protein)
chain: MTAKMETTFYDDALNASFLPSESGPYGYSNPKILKQSMTLNLADPVGSLKPHLRAKNSDLLTSPDVGLLKLASPELERLIIQSSNGHITTTPTPTQFLCPKNVTDEQEGFAEGFVRALAELHSQNTLPSVTSAAQPVNGAGMVAPAVASVAGGSGSGGFSASLHSEPPVYANLSNFNPGALSSGGGAPSYGAAGLAFPAQPQQQQQPPHHLPQQMPVQHPRLQALKEEPQTVPEMPGETPPLSPIDMESQERIKAERKRMRNRIAASKCRKRKLERIARLEEKVKTLKAQNSELASTANMLREQVAQLKQKVMNHVNSGCQLMLTQQLQTF
B2: FIP1L (protein, UniProt Q6UN15 1-594)
chain: MSAGEVERLVSELSGGTGGDEEEEWLYGGPWDVHVHSDLAKDLDENEVERPEEENASANPPSGIEDETAENGVPKPKVTETEDDSDSDSDDDEDDVHVTIGDIKTGAPQYGSYGTAPVNLNIKTGGRVYGTTGTKVKGVDLDAPGSINGVPLLEVDLDSFEDKPWRKPGADLSDYFNYGFNEDTWKAYCEKQKRIRMGLEVIPVTSTTNKITAEDCTMEVTPGAEIQDGRFNLFKVQQGRTGNSEKETALPSTKAEFTSPPSLFKTGLPPSRNSTSSQSQTSTASRKANSSVGKWQDRYGRAESPDLRRLPGAIDVIGQTITISRVEGRRRANENSNIQVLSERSATEVDNNFSKPPPFFPPGAPPTHLPPPPFLPPPPTVSTAPPLIPPPGFPPPPGAPPPSLIPTIESGHSSGYDSRSARAFPYGNVAFPHLPGSAPSWPSLVDTSKQWDYYARREKDRDRERDRDRERDRDRDRERERTRERERERDHSPTPSVFNSDEERYRYREYAERGYERHRASREKEERHRERRHREKEETRHKSSRSNSRRRHESEEGDSHRRHKHKKSKRSKEGKEAGSEPAPEQESTEATPAE
B3: JUND (protein, UniProt P17535 1-347)
chain: METPFYGDEALSGLGGGASGSGGSFASPGRLFPGAPPTAAAGSMMKKDALTLSLSEQVAAALKPAAAPPPTPLRADGAPSAAPPDGLLASPDLGLLKLASPELERLIIQSNGLVTTTPTSSQFLYPKVAASEEQEFAEGFVKALEDLHKQNQLGAGAAAAAAAAAAGGPSGTATGSAPPGELAPAAAAPEAPVYANLSSYAGGAGGAGGAATVAFAAEPVPFPPPPPPGALGPPRLAALKDEPQTVPDVPSFGESPPLSPIDMDTQERIKAERKRLRNRIAASKCRKRKLERISRLEEKVKTLKSQNTELASTASLLREQVAQLKQKVLSHVNSGCQLLPQHQVPAY
B4: FOSL1 (protein, UniProt P15407 1-271)
chain: MFRDFGEPGPSSGNGGGYGGPAQPPAAAQAAQQKFHLVPSINTMSGSQELQWMVQPHFLGPSSYPRPLTYPQYSPPQPRPGVIRALGPPPGVRRRPCEQISPEEEERRRVRRERNKLAAAKCRNRRKELTDFLQAETDKLEDEKSGLQREIEELQKQKERLELVLEAHRPICKIPEGAKEGDTGSTSGTSSPPAPCRPVPCISLSPGPVLEPEALHTPTLMTTPSLTPFTPSLVFTYPSTPEPCASAHRKSSSSSGDPSSDPLGSPTLLAL
B5: CPSF1 (protein, UniProt Q10570 1-1443)
chain: MYAVYKQAHPPTGLEFSMYCNFFNNSERNLVVAGTSQLYVYRLNRDAEALTKNDRSTEGKAHREKLELAASFSFFGNVMSMASVQLAGAKRDALLLSFKDAKLSVVEYDPGTHDLKTLSLHYFEEPELRDGFVQNVHTPRVRVDPDGRCAAMLVYGTRLVVLPFRRESLAEEHEGLVGEGQRSSFLPSYIIDVRALDEKLLNIIDLQFLHGYYEPTLLILFEPNQTWPGRVAVRQDTCSIVAISLNITQKVHPVIWSLTSLPFDCTQALAVPKPIGGVVVFAVNSLLYLNQSVPPYGVALNSLTTGTTAFPLRTQEGVRITLDCAQATFISYDKMVISLKGGEIYVLTLITDGMRSVRAFHFDKAAASVLTTSMVTMEPGYLFLGSRLGNSLLLKYTEKLQEPPASAVREAADKEEPPSKKKRVDATAGWSAAGKSVPQDEVDEIEVYGSEAQSGTQLATYSFEVCDSILNIGPCANAAVGEPAFLSEEFQNSPEPDLEIVVCSGHGKNGALSVLQKSIRPQVVTTFELPGCYDMWTVIAPVRKEEEDNPKGEGTEQEPSTTPEADDDGRRHGFLILSREDSTMILQTGQEIMELDTSGFATQGPTVFAGNIGDNRYIVQVSPLGIRLLEGVNQLHFIPVDLGAPIVQCAVADPYVVIMSAEGHVTMFLLKSDSYGGRHHRLALHKPPLHHQSKVITLCLYRDLSGMFTTESRLGGARDELGGRSGPEAEGLGSETSPTVDDEEEMLYGDSGSLFSPSKEEARRSSQPPADRDPAPFRAEPTHWCLLVRENGTMEIYQLPDWRLVFLVKNFPVGQRVLVDSSFGQPTTQGEARREEATRQGELPLVKEVLLVALGSRQSRPYLLVHVDQELLIYEAFPHDSQLGQGNLKVRFKKVPHNINFREKKPKPSKKKAEGGGAEEGAGARGRVARFRYFEDIYGYSGVFICGPSPHWLLVTGRGALRLHPMAIDGPVDSFAPFHNVNCPRGFLYFNRQGELRISVLPAYLSYDAPWPVRKIPLRCTAHYVAYHVESKVYAVATSTNTPCARIPRMTGEEKEFETIERDERYIHPQQEAFSIQLISPVSWEAIPNARIELQEWEHVTCMKTVSLRSEETVSGLKGYVAAGTCLMQGEEVTCRGRILIMDVIEVVPEPGQPLTKNKFKVLYEKEQKGPVTALCHCNGHLVSAIGQKIFLWSLRASELTGMAFIDTQLYIHQMISVKNFILAADVMKSISLLRYQEESKTLSLVSRDAKPLEVYSVDFMVDNAQLGFLVSDRDRNLMVYMYLPEAKESFGGMRLLRRADFHVGAHVNTFWRTPCRGATEGLSKKSVVWENKHITWFATLDGGIGLLLPMQEKTYRRLLMLQNALTTMLPHHAGLNPRAFRMLHVDRRTLQNAVRNVLDGELLNRYLYLSTMERSELAKKIGTTPDIILDDLLETDRVTAHF
B6: CPSF2 (protein, UniProt Q9P2I0 1-782)
chain: MTSIIKLTTLSGVQEESALCYLLQVDEFRFLLDCGWDEHFSMDIIDSLRKHVHQIDAVLLSHPDPLHLGALPYAVGKLGLNCAIYATIPVYKMGQMFMYDLYQSRHNTEDFTLFTLDDVDAAFDKIQQLKFSQIVNLKGKGHGLSITPLPAGHMIGGTIWKIVKDGEEEIVYAVDFNHKREIHLNGCSLEMLSRPSLLITDSFNATYVQPRRKQRDEQLLTNVLETLRGDGNVLIAVDTAGRVLELAQLLDQIWRTKDAGLGVYSLALLNNVSYNVVEFSKSQVEWMSDKLMRCFEDKRNNPFQFRHLSLCHGLSDLARVPSPKVVLASQPDLECGFSRDLFIQWCQDPKNSIILTYRTTPGTLARFLIDNPSEKITEIELRKRVKLEGKELEEYLEKEKLKKEAAKKLEQSKEADIDSSDESDIEEDIDQPSAHKTKHDLMMKGEGSRKGSFFKQAKKSYPMFPAPEERIKWDEYGEIIKPEDFLVPELQATEEEKSKLESGLTNGDEPMDQDLSDVPTKCISTTESIEIKARVTYIDYEGRSDGDSIKKIINQMKPRQLIIVHGPPEASQDLAECCRAFGGKDIKVYMPKLHETVDATSETHIYQVRLKDSLVSSLQFCKAKDAELAWIDGVLDMRVSKVDTGVILEEGELKDDGEDSEMQVEAPSDSSVIAQQKAMKSLFGDDEKETGEESEIIPTLEPLPPHEVPGHQSVFMNEPRLSDFKQVLLREGIQAEFVGGVLVCNNQVAVRRTETGRIGLEGCLCQDFYRIRDLLYEQYAIV
B7: FOSL2 (protein, UniProt P15408 1-326)
chain: MYQDYPGNFDTSSRGSSGSPAHAESYSSGGGGQQKFRVDMPGSGSAFIPTINAITTSQDLQWMVQPTVITSMSNPYPRSHPYSPLPGLASVPGHMALPRPGVIKTIGTTVGRRRRDEQLSPEEEEKRRIRRERNKLAAAKCRNRRRELTEKLQAETEELEEEKSGLQKEIAELQKEKEKLEFMLVAHGPVCKISPEERRSPPAPGLQPMRSGGGSVGAVVVKQEPLEEDSPSSSSAGLDKAQRSVIKPISIAGGFYGEEPLHTPIVVTSTPAVTPGTSNLVFTYPSVLEQESPASPSESCSKAHRRSSSSGDQSSDSLNSPTLLAL
B8: CPSF3 (protein, UniProt Q9UKF6 1-684)
chain: MSAIPAEESDQLLIRPLGAGQEVGRSCIILEFKGRKIMLDCGIHPGLEGMDALPYIDLIDPAEIDLLLISHFHLDHCGALPWFLQKTSFKGRTFMTHATKAIYRWLLSDYVKVSNISADDMLYTETDLEESMDKIETINFHEVKEVAGIKFWCYHAGHVLGAAMFMIEIAGVKLLYTGDFSRQEDRHLMAAEIPNIKPDILIIESTYGTHIHEKREEREARFCNTVHDIVNRGGRGLIPVFALGRAQELLLILDEYWQNHPELHDIPIYYASSLAKKCMAVYQTYVNAMNDKIRKQININNPFVFKHISNLKSMDHFDDIGPSVVMASPGMMQSGLSRELFESWCTDKRNGVIIAGYCVEGTLAKHIMSEPEEITTMSGQKLPLKMSVDYISFSAHTDYQQTSEFIRALKPPHVILVHGEQNEMARLKAALIREYEDNDEVHIEVHNPRNTEAVTLNFRGEKLAKVMGFLADKKPEQGQRVSGILVKRNFNYHILSPCDLSNYTDLAMSTVKQTQAIPYTGPFNLLCYQLQKLTGDVEELEIQEKPALKVFKNITVIQEPGMVVLEWLANPSNDMYADTVTTVILEVQSNPKIRKGAVQKVSKKLEMHVYSKRLEIMLQDIFGEDCVSVKDDSILSVTVDGKTANLNLETRTVECEEGSEDDESLREMVELAAQRLYEALTPVH
B9: JUNB (protein, UniProt P17275 1-347)
chain: MCTKMEQPFYHDDSYTATGYGRAPGGLSLHDYKLLKPSLAVNLADPYRSLKAPGARGPGPEGGGGGSYFSGQGSDTGASLKLASSELERLIVPNSNGVITTTPTPPGQYFYPRGGGSGGGAGGAGGGVTEEQEGFADGFVKALDDLHKMNHVTPPNVSLGATGGPPAGPGGVYAGPEPPPVYTNLSSYSPASASSGGAGAAVGTGSSYPTTTISYLPHAPPFAGGHPAQLGLGRGASTFKEEPQTVPEARSRDATPPVSPINMEDQERIKVERKRLRNRLAATKCRKRKLERIARLEDKVKTLKAENAGLSSTAGLLREQVAQLKQKVMTHVSNGCQLLLGVKGHAF

Biological target: NR2E3-MUTT2A-TurboID (human), Q9Y5X4
Test: proximity labelling
Conditions: remark: other sources report otherwise

binding, binds:
B1

Biological target: NR2E3-MUTT2A-TurboID (human) (UniProt Q9Y5X4)
Test: proximity labelling
Conditions: not given

binding, binds:
B2
B3
B4
B5
B6
B7
B8
B9

No constants are given. Whether binding was seen depends on the method and setting. In cells and extracts the contact can be indirect. These calls come from enrichment with a bait or labelling near it, and not all partners need be listed.
